Hit rate of the full screen: of about 1,400 compounds, about 30 (2%) were called active. Roughly 15% stayed inconclusive and do not appear here. The call rests on the fitted dose curve; in most records, active means well fitted inhibition curve with a large enough effect; inconclusive means small, poorly fitted or top-dose-only effect; inactive means flat fitted curve, though single readings scatter. The list shows a part of the results.
Assay: Firefly Luciferase Counterscreen for Inhibitors of ATXN expression
Settings: luminescence; series mostly up to 57.5 µM; activity change, negative = inhibition: at the top concentration
Procedure, shortened: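 Recombinant firefly luciferase at 10 nM final in 50 mM Tris pH 7.5, 10 mM MgCl2, 0.05% BSA, 0.01% Tween20 with substrate; compounds up to 57 uM final, 10 min room temperature, end-point luminescence. Buffer-only wells define 100% inhibition.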
On the % scale 0 is the no-effect control and ±100 the full control effect; potency means the concentration at half of the fitted maximal effect.

| Compound | activity change, negative = inhibition | Potency |
| --- | --- | --- |
| OC1CCCN(Cc2c3ccccc3cc3ccccc23)C1 (stereo not given) | inactive: -3.26% | – |
| Cc1cc(C)cc(C(=O)N(NC(=O)Nc2ccc(Cl)cc2)C(C)(C)C)c1 | inactive: 0.606% | – |
| CN(CC(=O)Nc1ccc(Cl)c(C(F)(F)F)c1)C(=O)c1cccnc1Sc1ccccc1 | inactive: 2.21% | – |
| COc1cc(-c2cnc3c(NC=O)cc(-c4cccc(C(F)(F)F)c4)cn23)cc(OC)c1OC | inactive: -4.12% | – |
| CCOC(=O)c1sc2nc(CSc3ccccc3)nc(NCCN(C)C)c2c1C | inactive: 0.864% | – |
| Cc1occc1C(=O)N/N=C/c1c(O)ccc2ccccc12 | inactive: -18.3% | – |
| O=C(CNC(=O)c1ccc(F)cc1)N/N=C/c1cc(Br)ccc1OC(=O)/C=C/c1ccco1 | inactive: -1.3% | – |
| CC[n+]1c(/C=C/N(C)c2ccccc2)oc2ccc(F)cc21 | inactive: 2.57% | – |
| CC1CC(Nc2ccccc2)c2ccccc2N1C(=O)c1cccnc1 (stereo not given) | inactive: 2.41% | – |
| COc1ccccc1CNc1nc(NCc2cccc(OC)c2OC)c2sccc2n1 | inactive: -8.98% | – |
| CCCCCc1ccc(OCCCC[n+]2cccc(C)c2)c(CCCCC)c1 | inactive: 2.9% | – |
| O=C(N/N=C/c1sc(N2CCOCC2)nc1-c1ccccc1)c1ccccc1O | inactive: -18.3% | – |
| Cc1ccc(S(=O)(=O)c2cc3cc(Br)ccc3oc2=O)cc1 | inactive: -1.09% | – |
| Oc1c(CN2CCOCC2)cc(COCc2ccccc2)c2cccnc12 | inactive: 0.0549% | – |
| CCN(CC)CCCNc1nc2ccccc2c2nc(-c3ccncc3)nn12 | inactive: -3.43% | – |
| COc1ccc2oc(/C=C/N(C)C)c(C(=O)c3ccc(Cl)cc3)c2c1 | inactive: -4.4% | – |
| CCn1c2ccccc2c2cc(NC(=O)COC(=O)c3cccc(S(=O)(=O)NC)c3)ccc21 | inactive: -5.82% | – |
| CSc1ncnc2c1ncn2CC(=O)C1CCC2C3CCC4=CC(=O)CCC4(C)C3CCC12C (stereo not given) | inactive: -0.252% | – |
| CCN1CCN(C(=S)c2ccc(-c3ccccc3)cc2)CC1 | inactive: -6.16% | – |
| COc1cccc2nc3c(C(=O)NCCN(C)C)cccc3cc12 | inactive: -5.3% | – |
| O=C(c1ccoc1)N1CCN(c2cc(-c3ccccc3)nc3cc(-c4ccccc4)nn23)CC1 | inactive: 0.794% | – |
| COc1ccc(OC)c(NC(=O)CSc2nnnn2-c2ccc3c(c2)OCO3)c1 | inactive: 0.0331% | – |
| CCCCOc1ccc(CSC(=N)N)cc1Cl | inactive: -4.4% | – |
| Cc1ccc(/C=C2\SC(=S)N(CCCC(=O)Nc3nccs3)C2=O)cc1 | inactive: -2.68% | – |
| Cc1ccc(-n2ncc(C(=O)Nc3ccc(Cl)cc3)c2C2CCNCC2)cc1C | inactive: 0.188% | – |

Reformatted tab-delimited: part of the list above
Compound	activity change, negative = inhibition	Potency
O=C(N/N=C/c1sc(N2CCOCC2)nc1-c1ccccc1)c1ccccc1O	inactive: -18.3%	–
Cc1ccc(S(=O)(=O)c2cc3cc(Br)ccc3oc2=O)cc1	inactive: -1.09%	–
Oc1c(CN2CCOCC2)cc(COCc2ccccc2)c2cccnc12	inactive: 0.0549%	–
CCN(CC)CCCNc1nc2ccccc2c2nc(-c3ccncc3)nn12	inactive: -3.43%	–
COc1ccc2oc(/C=C/N(C)C)c(C(=O)c3ccc(Cl)cc3)c2c1	inactive: -4.4%	–
CCn1c2ccccc2c2cc(NC(=O)COC(=O)c3cccc(S(=O)(=O)NC)c3)ccc21	inactive: -5.82%	–
CSc1ncnc2c1ncn2CC(=O)C1CCC2C3CCC4=CC(=O)CCC4(C)C3CCC12C (stereo not given)	inactive: -0.252%	–
CCN1CCN(C(=S)c2ccc(-c3ccccc3)cc2)CC1	inactive: -6.16%	–
COc1cccc2nc3c(C(=O)NCCN(C)C)cccc3cc12	inactive: -5.3%	–
O=C(c1ccoc1)N1CCN(c2cc(-c3ccccc3)nc3cc(-c4ccccc4)nn23)CC1	inactive: 0.794%	–
COc1ccc(OC)c(NC(=O)CSc2nnnn2-c2ccc3c(c2)OCO3)c1	inactive: 0.0331%	–
CCCCOc1ccc(CSC(=N)N)cc1Cl	inactive: -4.4%	–
Cc1ccc(/C=C2\SC(=S)N(CCCC(=O)Nc3nccs3)C2=O)cc1	inactive: -2.68%	–

Continuation:

| Compound | activity change, negative = inhibition | Potency |
| --- | --- | --- |
| C[C@@H]1CC=C[C@@H]2[C@H]1C(=O)N(Cc1ccccc1)[C@H]2c1ccccc1Br | inactive: -7.47% | – |
| COc1ccccc1/C=C\C(=O)NCC(=O)N/N=C/c1cccc(OC)c1O | inactive: -7.1% | – |
| O=C(N/N=C1\CCCc2c1[nH]c1ccc(Cl)cc21)c1ccncc1 | inactive: -6.51% | – |
| OCCN1CCN(C(=S)c2ccc(-c3ccccc3)cc2)CC1 | inactive: -15% | – |
| Cc1cc(SCC(=O)OC/C(O)=C(\C#N)c2nc3ccccc3[nH]2)c(C)cc1Br | inactive: -12.3% | – |
| CC(C)C(CCNCc1ccccn1)c1ccc(Cl)cc1 (stereo not given) | inactive: 5.07% | – |
| O=C1c2cccc3cc([N+](=O)[O-])cc(c23)C(=O)N1CCN1CCCC1 | inactive: 1.39% | – |
| O=C(CCSc1nc2ccccc2s1)N/N=C/c1c(O)ccc2ccccc12 | inactive: 3.04% | – |
| S=C(Nc1ccccc1)Nc1ccc(OCc2ccc(Cl)cc2Cl)cc1 | inactive: -8.77% | – |
| O=C(Nc1ccc(Cl)c([N+](=O)[O-])c1)c1ccc(NCCCN2CCOCC2)c([N+](=O)[O-])c1 | inactive: 1.04% | – |
| COc1ccccc1Cc1c(-c2ccco2)nc2c(C)cc(Br)cn12 | – | active: 15.8 µM |
| CS(=O)(=O)c1ccc(Nc2nc(C(N)Cc3ccc(C(F)(F)F)cc3)cs2)cc1 (stereo not given) | inactive: -7.22% | – |
| CN1CCC(N(C)C(=O)c2ccc(Cl)c(S(=O)(=O)N3CCc4ccccc43)c2)CC1 | inactive: 3.31% | – |
| N=c1n(CCCOc2ccccc2Cl)c2ccccc2n1CC(N)=O | inactive: -13.7% | – |
| O=C(CN1C(=O)c2ccccc2S1(=O)=O)c1ccc(Cl)cc1Cl | – | active: 0.562 µM |
| COc1ccc2c(c1)CCCN2S(=O)(=O)c1ccc(Cl)cc1 | inactive: 0.417% | – |
| Cc1cc(C)c2nc(NNC(=O)c3ccc(S(=O)(=O)N4CCc5ccccc5C4)cc3)sc2c1 | inactive: -16.6% | – |
| COc1cc2nc(N(C)C)nc(N)c2cc1OC | inactive: -5.16% | – |
| Cc1nc2c(OCc3cc(Cl)cc(Cl)c3)cccn2c1N(C)C(=O)CCC1CCCC1 | inactive: -6.24% | – |
| Cc1cc2oc3ccc(NCCC4CCCN4C)cc3c(=O)c2cc1C (stereo not given) | – | active: 6.31 µM |
| Cc1sc2ncnc(NCC(O)c3ccc([N+](=O)[O-])cc3)c2c1C (stereo not given) | inactive: -0.514% | – |
| COc1ccc(C2CC(c3cccc(Cl)c3)=NN2c2ccc(S(N)(=O)=O)cc2)cc1 (stereo not given) | inactive: -6.69% | – |
| CC(C)(C)S(=O)(=O)/C(C#N)=N/Nc1ccc(Cl)cc1 | inactive: -16.2% | – |
| CN1CCC(NC(=O)c2cc(-c3cccc(Br)c3)nc3ccccc23)CC1 | inactive: -6.79% | – |
| COc1ccc(C(=O)N2CCN(c3nc(C4CC4)nc4sc(C)c(C)c34)CC2)cc1 | inactive: -0.954% | – |

— PubChem BioAssay AID1745846 (National Center for Advancing Translational Sciences (NCATS), 2022)
